Experiment in all cases: glycan array binding signal (z-score within array); higher = stronger binding
What all share (settings): glycan notation: IUPAC condensed, linker removed

Experiment [1] deals with Gal(b1-4)GlcNAc(b1-2)[Gal(b1-4)GlcNAc(b1-6)]Man(a1-6)[Gal(b1-4)GlcNAc(b1-2)Man(a1-3)]Man(b1-4)GlcNAc(b1-4)[Fuc(a1-6)]GlcNAc. In outline: (§1)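 From the Consortium for Functional Glycomics database, 3228 arrays were curated, keeping only those whose protein sequence was available. Binding is given as a within-array Z-score averaged across arrays sharing a protein sequence and across linkers. Negative Z-scores can be read as non-binding.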

For experiment [2], the target named is Gal(b1-4)GlcNAc(b1-2)[Gal(b1-4)GlcNAc(b1-6)]Man(a1-6)[GlcNAc(b1-4)][Gal(b1-4)GlcNAc(b1-2)Man(a1-3)]Man(b1-4)GlcNAc(b1-4)GlcNAc. The gist of the method:
as §1

Experiment [3] concerns the target Gal(b1-4)GlcNAc(b1-2)[Gal(b1-4)GlcNAc(b1-6)]Man(a1-6)[GlcNAc(b1-4)][Gal(b1-4)GlcNAc(b1-2)[Gal(b1-4)GlcNAc(b1-4)]Man(a1-3)]Man(b1-4)GlcNAc(b1-4)[Fuc(a1-6)]GlcNAc. In outline:
as §1

Experiment [4] concerns the target Gal(b1-4)GlcNAc(b1-3)Gal(b1-3)GalNAc. The gist of the method: as §1
For experiment [5], the target named is Gal(b1-4)GlcNAc(b1-3)Gal(b1-3)GlcNAc. In outline:
as §1

Experiment [6] concerns the target Gal(b1-4)GlcNAc(b1-3)Gal(b1-4)Glc. In outline: as §1
Experiment [7] concerns the target Gal(b1-4)GlcNAc(b1-3)Gal(b1-4)GlcNAc. The gist of the method:
as §1

The target in experiment [8] is Gal(b1-4)GlcNAc(b1-3)Gal(b1-4)GlcNAc(b1-2)Man(a1-3)[Gal(b1-4)GlcNAc(b1-3)Gal(b1-4)GlcNAc(b1-2)Man(a1-6)]Man(b1-4)GlcNAc(b1-4)GlcNAc. The gist of the method:
as §1

The target in experiment [9] is Gal(b1-4)GlcNAc(b1-3)Gal(b1-4)GlcNAc(b1-2)Man(a1-3)[Gal(b1-4)GlcNAc(b1-3)Gal(b1-4)GlcNAc(b1-2)Man(a1-6)]Man(b1-4)GlcNAc(b1-4)[Fuc(a1-6)]GlcNAc. In outline: as §1
The target in experiment [10] is Gal(b1-4)GlcNAc(b1-3)Gal(b1-4)GlcNAc(b1-2)[Gal(b1-4)GlcNAc(b1-3)Gal(b1-4)GlcNAc(b1-6)]Man(a1-6)[Gal(b1-4)GlcNAc(b1-3)Gal(b1-4)GlcNAc(b1-2)Man(a1-3)]Man(b1-4)GlcNAc(b1-4)GlcNAc. The gist of the method:
as §1

For experiment [11], the target named is Gal(b1-4)GlcNAc(b1-3)Gal(b1-4)GlcNAc(b1-2)[Gal(b1-4)GlcNAc(b1-3)Gal(b1-4)GlcNAc(b1-6)]Man(a1-6)[Gal(b1-4)GlcNAc(b1-3)Gal(b1-4)GlcNAc(b1-2)Man(a1-3)]Man(b1-4)GlcNAc(b1-4)[Fuc(a1-6)]GlcNAc. The gist of the method: as §1
Experiment [12] addresses Gal(b1-4)GlcNAc(b1-3)Gal(b1-4)GlcNAc(b1-3)Gal(b1-4)GlcNAc. In outline:
as §1

In experiment [13] the target is Gal(b1-4)GlcNAc(b1-3)Gal(b1-4)GlcNAc(b1-3)Gal(b1-4)GlcNAc(b1-2)Man(a1-3)[Gal(b1-4)GlcNAc(b1-3)Gal(b1-4)GlcNAc(b1-3)Gal(b1-4)GlcNAc(b1-2)Man(a1-6)]Man(b1-4)GlcNAc(b1-4)GlcNAc. In outline: as §1
Experiment [14] has as its target Gal(b1-4)GlcNAc(b1-3)Gal(b1-4)GlcNAc(b1-3)Gal(b1-4)GlcNAc(b1-2)Man(a1-3)[Gal(b1-4)GlcNAc(b1-3)Gal(b1-4)GlcNAc(b1-3)Gal(b1-4)GlcNAc(b1-2)Man(a1-6)]Man(b1-4)GlcNAc(b1-4)[Fuc(a1-6)]GlcNAc. In outline: as §1
Experiment [15] has as its target Gal(b1-4)GlcNAc(b1-3)Gal(b1-4)GlcNAc(b1-3)Gal(b1-4)GlcNAc(b1-2)[Gal(b1-4)GlcNAc(b1-3)Gal(b1-4)GlcNAc(b1-3)Gal(b1-4)GlcNAc(b1-6)]Man(a1-6)[Gal(b1-4)GlcNAc(b1-3)Gal(b1-4)GlcNAc(b1-3)Gal(b1-4)GlcNAc(b1-2)Man(a1-3)]Man(b1-4)GlcNAc(b1-4)[Fuc(a1-6)]GlcNAc. In outline: as §1
Experiment [16] deals with Gal(b1-4)GlcNAc(b1-3)Gal(b1-4)GlcNAc(b1-3)Gal(b1-4)GlcNAc(b1-3)Gal(b1-4)GlcNAc(b1-2)Man(a1-3)[Gal(b1-4)GlcNAc(b1-3)Gal(b1-4)GlcNAc(b1-3)Gal(b1-4)GlcNAc(b1-3)Gal(b1-4)GlcNAc(b1-2)Man(a1-6)]Man(b1-4)GlcNAc(b1-4)GlcNAc. In outline:
as §1

The target in experiment [17] is Gal(b1-4)GlcNAc(b1-3)Gal(b1-4)GlcNAc(b1-3)Gal(b1-4)GlcNAc(b1-3)Gal(b1-4)GlcNAc(b1-2)Man(a1-3)[Gal(b1-4)GlcNAc(b1-3)Gal(b1-4)GlcNAc(b1-3)Gal(b1-4)GlcNAc(b1-3)Gal(b1-4)GlcNAc(b1-2)Man(a1-6)]Man(b1-4)GlcNAc(b1-4)[Fuc(a1-6)]GlcNAc. In outline:
as §1

The target in experiment [18] is Gal(b1-4)GlcNAc(b1-3)Gal(b1-4)GlcNAc(b1-3)Gal(b1-4)GlcNAc(b1-3)Gal(b1-4)GlcNAc(b1-2)[Gal(b1-4)GlcNAc(b1-3)Gal(b1-4)GlcNAc(b1-3)Gal(b1-4)GlcNAc(b1-3)Gal(b1-4)GlcNAc(b1-6)]Man(a1-6)[Gal(b1-4)GlcNAc(b1-3)Gal(b1-4)GlcNAc(b1-3)Gal(b1-4)GlcNAc(b1-3)Gal(b1-4)GlcNAc(b1-2)Man(a1-3)]Man(b1-4)GlcNAc(b1-4)[Fuc(a1-6)]GlcNAc. The gist of the method:
as §1

For experiment [19], the target named is Gal(b1-4)GlcNAc(b1-3)Gal(b1-4)GlcNAc(b1-3)Gal(b1-4)GlcNAc(b1-3)Gal(b1-4)GlcNAc(b1-3)Gal(b1-4)GlcNAc(b1-2)Man(a1-3)[Gal(b1-4)GlcNAc(b1-3)Gal(b1-4)GlcNAc(b1-3)Gal(b1-4)GlcNAc(b1-3)Gal(b1-4)GlcNAc(b1-3)Gal(b1-4)GlcNAc(b1-2)Man(a1-6)]Man(b1-4)GlcNAc(b1-4)GlcNAc. In outline: as §1
The target of experiment [20] is Gal(b1-4)GlcNAc(b1-3)Gal(b1-4)GlcNAc(b1-3)Gal(b1-4)GlcNAc(b1-3)Gal(b1-4)GlcNAc(b1-3)Gal(b1-4)GlcNAc(b1-2)Man(a1-3)[Gal(b1-4)GlcNAc(b1-3)Gal(b1-4)GlcNAc(b1-3)Gal(b1-4)GlcNAc(b1-3)Gal(b1-4)GlcNAc(b1-3)Gal(b1-4)GlcNAc(b1-2)Man(a1-6)]Man(b1-4)GlcNAc(b1-4)[Fuc(a1-6)]GlcNAc. The gist of the method: as §1
The target of experiment [21] is Gal(b1-4)GlcNAc(b1-3)Gal(b1-4)GlcNAc(b1-3)Gal(b1-4)GlcNAc(b1-3)Gal(b1-4)GlcNAc(b1-3)Gal(b1-4)GlcNAc(b1-2)[Gal(b1-4)GlcNAc(b1-3)Gal(b1-4)GlcNAc(b1-3)Gal(b1-4)GlcNAc(b1-3)Gal(b1-4)GlcNAc(b1-3)Gal(b1-4)GlcNAc(b1-6)]Man(a1-6)[Gal(b1-4)GlcNAc(b1-3)Gal(b1-4)GlcNAc(b1-3)Gal(b1-4)GlcNAc(b1-3)Gal(b1-4)GlcNAc(b1-3)Gal(b1-4)GlcNAc(b1-2)Man(a1-3)]Man(b1-4)GlcNAc(b1-4)[Fuc(a1-6)]GlcNAc. In outline: as §1

Experiment [22] addresses Gal(b1-4)GlcNAc(b1-3)Gal(b1-4)GlcNAc(b1-3)Gal(b1-4)GlcNAc(b1-3)Gal(b1-4)GlcNAc(b1-3)Gal(b1-4)GlcNAc(b1-3)Gal(b1-4)GlcNAc(b1-2)Man(a1-3)[Gal(b1-4)GlcNAc(b1-3)Gal(b1-4)GlcNAc(b1-3)Gal(b1-4)GlcNAc(b1-3)Gal(b1-4)GlcNAc(b1-3)Gal(b1-4)GlcNAc(b1-3)Gal(b1-4)GlcNAc(b1-2)Man(a1-6)]Man(b1-4)GlcNAc(b1-4)GlcNAc. In outline: as §1
Experiment [23] addresses Gal(b1-4)GlcNAc(b1-3)Gal(b1-4)GlcNAc(b1-3)GalNAc. The gist of the method:
as §1

The other results are listed elsewhere or left out.

B1: CBP21 (Serratia marcescens), O83009 (protein)
chain: MNKTSRTLLSLGLLSAAMFGVSQQANAHGYVESPASRAYQCKLQLNTQCGSVQYEPQSVEGLKGFPQAGPADGHIASADKSTFFELDQQTPTRWNKLNLKTGPNSFTWKLTARHSTTSWRYFITKPNWDASQPLTRASFDLTPFCQFNDGGAIPAAQVTHQCNIPADRSGSHVILAVWDIADTANAFYQAIDVNLSK
Consider B1, for which the “glycan array binding signal (z-score)” value was 0.885 in experiment [1]; -1.1 in experiment [2]; -1.38 in experiment [3]; 1.43 in experiment [4]; 0.227 in experiment [5]; -0.209 in experiment [6]. Further, the “glycan array binding signal (z-score)” value was 0.198 in [7]; -0.662 in experiment [8]; 0.093 in experiment [9]; 1.3 in experiment [10]; 1.11 in experiment [11]; 0 in experiment [12]. Further, the “glycan array binding signal (z-score)” value in experiment [13] was 0.867; in [14], 2.68; in [15], 0.051; in experiment [16] it was 0.562; in experiment [17], -0.333; in [18], 0.53. For the same molecule, the “glycan array binding signal (z-score)” value in [19] was 1.31; in experiment [20] it was 1.64; in experiment [21], 2.67; in experiment [22] it was 1.21; in experiment [23] it was -0.293.

For the origin of these results see the supplement of paper PMC8728848.
